Experimental findings from PMC12040169 (PLOS Biology, 2025) are described below.

The other results are listed elsewhere or left out.

The test concerns T1, CTL2-GFP (C. trachomatis L2/434/Bu, GFP-expressing).
T1 construct: L2/434/Bu, GFP-expressing
More on the design: species or system HeLa; Intracellular C. trachomatis growth in HeLa cells, bulk GFP fluorescence relative to DMSO. The conditions noted are these: bulk GFP, single well; 28.5 h, 10 µM; inhibitor.
Consider `O=C(O)CCn1ncc2ccccc21` [CBK262257], for which the “% of control remaining” value amounted to 99.3226%.
Turning to `CC(C)(C)c1csc(N2CCSCC2)n1` [CBK021950], the “% of control remaining” value came out at 100.876%.
Take `COc1ccccc1OCCNC1CCc2cc(Cl)ccc2C1` (centres unmarked) [CBK013067C]: the “% of control remaining” value worked out at 109.485%.
Regarding `O=C(NC(Cc1ccsc1)c1ccccn1)c1ccc(=O)[nH]c1` (centres unmarked) [CBK285272], the “% of control remaining” value is reported as 90.8312%.
With `O=C(COC(=O)C1CCC(N2C(=O)c3ccccc3C2=O)CC1)c1ccc(-c2ccccc2)cc1` (centres unmarked) [CBK264789], the “% of control remaining” value turned out to be 133.254%.
In the case of `Cc1nc(C)c(C(=O)NCCN2CCCC2=O)s1` [CBK282222] it was 117.672%; in that of `O=C(Nc1nccc(-c2cc(OCC(F)(F)F)ccc2OCC(F)(F)F)n1)c1cccs1` [CBK005949], 70.4243%.
In the case of `Cn1c(=O)c2[nH]c(N3CCN(c4cccc(O)c4)CC3)nc2n(C)c1=O` [CBK269760] it was 90.7679%.
Regarding `Cc1nonc1CC(=O)NC1(c2ccc(F)cc2)CCCC1` [CBK283613], the “% of control remaining” value came to 117.181%.
With `Cc1ccc(C(CCO)Nc2ncnc3c2c(C)nn3C)cc1` (centres unmarked) [CBK307387], the “% of control remaining” value is recorded as 118.147%.
For the compound `COc1ncc(-c2nccnc2OCCn2cnc3c2c(=O)n(C)c(=O)n3C)c(OC)n1` [CBK106746], the “% of control remaining” value was determined as 102.388%.
In the case of `CN(C)C(=O)c1ccc(-c2ccc3c(c2)OC(C2CCN(C(=O)OCc4ccccc4)CC2)OC3)cc1` (centres unmarked) [CBK144649] it was 116.133%; in that of `Cc1cc(CN2CCN(S(=O)(=O)c3ccc(-c4ccccc4)cc3)CC2)cc(C)c1O` [CBK062747], 88.1511%; in that of `COc1ccc(S(=O)(=O)Nc2cc(C(=O)O)ccc2C)cc1NC(C)=O` [CBK296946], 148.884%.
For `Cc1cc(CNS(=O)(=O)c2sc3ccc(C(C)C)cc3c2C)no1` [CBK170353] the value was 118.304%; for `O=C1C2C3C=CC(C3)C2C(=O)N1CCN1CCN(S(=O)(=O)/C=C/c2ccccc2)CC1` (centres unmarked) [CBK263663], 130.368%; for `CCn1cc(CN2CCCN(C(=O)c3cn4ccccc4n3)CC2)cn1` [CBK304784], 143.369%.
Take `N#Cc1c(NC(=O)CN2CCN(Cc3ccccc3)CC2)sc2c1CCCC2` [CBK267969]: the “% of control remaining” value came to 107.032%.
As for `O=[N+]([O-])c1ccc(CN2CCN(Cc3cc(Br)ccc3O)CC2)cc1` [CBK263652G], the “% of control remaining” value was found to be 102.689%.
For `CNCC(=O)N[C@H]1CCN2C(=O)c3ccc(Cl)cc3NC(=O)[C@@H]2C1` [CBK289566] the value was 145.823%; for `O=C(CCNC(Cc1ccccc1)C(=O)O)c1ccccc1` (centres unmarked) [CBK286655], 123.862%.
Consider `COc1ccccc1C(=O)NCCCc1nc2ccccc2[nH]1` [CBK269837], for which the “% of control remaining” value was 120.796%.
On to `O=C(N/N=C/c1ccc[nH]1)C1CC1c1ccccc1` (centres unmarked) [CBK022120], for which the “% of control remaining” value is reported as 166.753%.
Take `NCCNCCCCOc1ccc(Cl)c(Cl)c1` [CBK265059]: the “% of control remaining” value was 84.7767%.
With `COc1ccc(-c2nc(NC3CCCCC3)c3ccccc3n2)cc1` [CBK058109], the “% of control remaining” value turned out to be 105.828%.
For the compound `O=C(NNC(=O)C(O)c1ccccc1)NC1CCCCC1` (centres unmarked) [CBK262625], the “% of control remaining” value came to 108.204%.
For `N#Cc1ccc(OCC(=O)Nc2ncccn2)cc1` [CBK304578] the value was 84.103%.
On to `CCCCCC(=O)Nc1c(C)cc(Br)cc1C` [CBK058159], for which the “% of control remaining” value was found to be 126.196%.
In the case of `Cc1cccc2cnc(C3CCN(C(=O)CCc4ccno4)CC3)cc12` [CBK285197] it was 107.719%; in that of `O=C(NCCc1ccccc1)NCCc1cccs1` [CBK045154], 148.23%.
Consider `O=C(Cn1cc(Br)ccc1=O)NC1CCN(CCc2ccccc2)CC1` [CBK305887], for which the “% of control remaining” value is recorded as 76.9709%.
`CCCC/C=C/c1cncc(N2CCN(c3ccccc3C#N)CC2)n1` [CBK037369]: the “% of control remaining” value came out at 123.277%.
For `Cc1cc(S(=O)(=O)NCCn2nc(C)c(C)c2C)ccc1F` [CBK281382] the value was 143.06%; for `O=C(O)COc1ccccc1/C=N/n1c(S)nnc1-c1cccnc1` [CBK265337], 130.404%; for `CC1CCc2sc(C(=O)N3CCC4(CC3)NC(=O)NC4=O)cc2C1` (centres unmarked) [CBK304992], 131.109%.
As to `O=c1cc(N2CCCCC2)cnn1CCCn1cccn1` [CBK306907], the “% of control remaining” value came out at 129.212%.
Regarding `COc1cc(NC(=O)C2CCN(S(=O)(=O)c3cccs3)CC2)c(Cl)cc1C(=O)O` [CBK297085], the “% of control remaining” value is 126.141%.
As for `Cc1ccc(S(=O)(=O)Nc2cccc(C(=O)O)c2)cc1` [CBK038891], the “% of control remaining” value turned out to be 133.228%.
With `CN1CCN(C(=O)c2cccc(-c3nc(-c4ccc(C#N)cc4)cnc3N)c2)CC1` [CBK064144], the “% of control remaining” value is recorded as 93.9375%.
Consider `O=C(NCc1ccccn1)C1CCN(S(=O)(=O)c2ccc(Cl)cc2)CC1` [CBK264959], for which the “% of control remaining” value was 123.798%.
Consider `Oc1cccc(-c2nccnc2NCCc2ccccn2)c1` [CBK037388], for which the “% of control remaining” value turned out to be 208.177%.
On to `O=C(NC1CCN(Cc2ccccc2)C1)c1ccc(F)cc1` (centres unmarked) [CBK283044], for which the “% of control remaining” value is reported as 117.84%.
Turning to `O=C(Cc1ccccc1)N1CCC(CC(=O)N2CCC3(CCCCC3)C2)CC1` [CBK286031], the “% of control remaining” value was determined as 123.262%.
Turning to `O=C(O)CCN1CCn2c3c(c4cc(C5CCCCC5)ccc42)CCCC31` (centres unmarked) [CBK263236], the “% of control remaining” value stood at 119.005%.
`O=C(Nc1cccnc1)c1ccc(CN2CCC(Cc3ccccc3)CC2)cc1` [CBK264095]: the “% of control remaining” value was found to be 111.8%.
For the compound `Cn1c(CN2CCCC2)nc2cc(NC(=O)c3cccc([N+](=O)[O-])c3)ccc21` [CBK268316], the “% of control remaining” value worked out at 113.317%.
As for `CS(=O)(=O)Nc1ccc(CNC(=O)C2(c3ccccc3)CCCC2)cc1` [CBK161525], the “% of control remaining” value stood at 107.208%.
As for `O=[N+]([O-])c1ccc(NCCNCCO)c(Cl)c1` [CBK261006], the “% of control remaining” value turned out to be 112.157%.
On to `O=C(C1CCCO1)N1C2CCC1CC(O)(c1ccco1)C2` (centres unmarked) [CBK284035], for which the “% of control remaining” value worked out at 133.9%.
Take `CCCC/C=C/c1cc(NCCc2ccccn2)n2nccc2n1` [CBK037155]: the “% of control remaining” value is listed as 104.079%.
In the case of `CN1CCN(C(=O)c2ccc(Cl)c(S(=O)(=O)N3CCCCC3)c2)CC1` [CBK262228] it was 93.0339%; in that of `NS(=O)(=O)c1ccc(CCNC(=O)C2c3ccccc3Oc3ccccc32)cc1` [CBK264389], 100%.
Turning to `COc1cc(OC)nc(C(NC(=O)C2CCN(Cc3cn(C)c4ccccc34)CC2)c2ccc(F)cc2)n1` (centres unmarked) [CBK148185], the “% of control remaining” value is 118.017%.
For the compound `O=C(Cn1c(-c2cccs2)n[nH]c1=S)N1CCC(c2nc3cc(Cl)ccc3o2)CC1` [CBK297765], the “% of control remaining” value is on record as 116.417%.
`Cc1ncc(CN(Cc2ccccn2)Cc2ccccc2Cl)n1C` [CBK282128]: the “% of control remaining” value is 151.114%.
Regarding `O=c1ccc2c(-c3ccccc3)ccnc2[nH]1` [CBK073723], the “% of control remaining” value was determined as 98.1302%.
Regarding `Cc1nc(COc2ccc(F)cc2)sc1C(=O)O` [CBK305074], the “% of control remaining” value turned out to be 140.438%.
Take `Cc1cc(C)c(S(=O)(=O)Nc2nnc(C(C)C)s2)c(C)c1` [CBK045516]: the “% of control remaining” value is given as 121.27%.
On to `Cc1cc(N(C)CCc2ccccc2)nc2cc(Cl)ccc12` [CBK262221], for which the “% of control remaining” value is listed as 99.1346%.
For `COc1ccc(Nc2nc(-c3cccnc3)cnc2N)cc1` [CBK063952] the value was 102.388%.
Regarding `O=C1NCCCC12CCN(Cc1cccc(F)c1F)CC2` [CBK284877], the “% of control remaining” value is recorded as 125.466%.
As to `O=C(CN1CCC(O)(Cc2ccccc2)CC1)N1CCCCCC1` [CBK283500], the “% of control remaining” value was determined as 130.825%.
Consider `COc1ccc(C(=O)N2CCN3C(=O)CCC32C)s1` (centres unmarked) [CBK282058], for which the “% of control remaining” value turned out to be 114.399%.
On to `CCCC(=O)c1ccc(S(=O)(=O)N2CCN(Cc3csc(-c4ccccc4)n3)CC2)cc1` [CBK063161], for which the “% of control remaining” value is reported as 86.4909%.
For `CC(=O)NCCSc1nc2ccccc2nc1NC(C)C` [CBK105618], the “% of control remaining” value is recorded as 107.494%.
Regarding `C/C(=N\NC(=O)c1ccc(CN2CCOCC2)cc1)c1ccc2c(c1)OCCO2` [CBK262755], the “% of control remaining” value was 102.071%.
As for `O=C1COc2ccccc2C/C=C/C[C@H]2CNCC[C@H]2N1` [CBK292033], the “% of control remaining” value is reported as 151.86%.
Turning to `Cn1cc(-c2nc(C3CCCCCN3C(=O)c3cccnc3)no2)cn1` (centres unmarked) [CBK305387], the “% of control remaining” value was 106.26%.
In the case of `CC(C)Nc1cc(Sc2ccc(Br)cc2)ncn1` [CBK089502] it was 74.4683%; in that of `O=C1CC(N2CCN(Cc3ccc4c(c3)OCO4)CC2)C(=O)N1CCc1ccccc1` (centres unmarked) [CBK074541], 102.892%; in that of `Clc1cncc(OCCc2c[nH]c3ccccc23)n1` [CBK176027], 119.544%.
Regarding `Cc1ccc2[nH]c(Cc3ccc(NC(=O)c4cc(=O)n(C)c5ccccc45)cc3)nc2c1` [CBK285815], the “% of control remaining” value was 123.424%.
Regarding `Cn1cc(C(=O)N2CCC3(C/C=C/C[C@H]4COCC[C@H]4NC(=O)CNC3=O)CC2)cn1` [CBK292069], the “% of control remaining” value came to 142.438%.
Turning to `COc1cc(CNC(=O)c2cccc(-c3ccc(OC4CCNCC4)cc3)n2)cc(OC)c1OC` [CBK126550T], the “% of control remaining” value is 107.988%.
`CCOC(=O)C(NC(=O)N(C1=NCC(C)S1)C1CCCCC1)(OC)C(F)(F)F` (centres unmarked) [CBK021431]: the “% of control remaining” value turned out to be 123.112%.
With `CC(NS(=O)(=O)c1ccc(Cl)cc1)C(=O)Nc1ccccc1Sc1ccccc1` (centres unmarked) [CBK266984], the “% of control remaining” value is listed as 154.4%.
For `Cc1ccc(N(CC(=O)Nc2ccc(C)cc2C)S(=O)(=O)N2CCCC2)cc1` [CBK265998], the “% of control remaining” value is reported as 83.3145%.
With `N#CC1CCCc2c1[nH]c1ccc(Cl)cc21` (centres unmarked) [CBK101438], the “% of control remaining” value is listed as 90.1988%.
As to `Cc1ccc(C2=CCN(S(=O)(=O)c3ccc(F)cc3)CC2)o1` [CBK283571], the “% of control remaining” value is listed as 75.8405%.
For `Cc1nn(CCC#N)c(C)c1[C@@H]1C=C[C@@H](NC(=O)NC(C)C)C1` [CBK289172] the value was 123.131%.
